Results taken from doi:10.1101/2023.09.21.558797.

Columns and labels:
Test in all cases: pull-down; GST-Dyn1 PRR constructs on GSH-sepharose beads incubated with rat brain synaptosomal (P2) lysate; 20 mM Tris pH 7.4, 150 mM NaCl, 1% Triton X-100, 1 mM EDTA, 1 mM EGTA; 4 °C, 1 h; bound proteins by Western blot with antibodies to Endophilin A and Amphiphysin 1; only the target purified
[1] = molecular target: GST-Dyn1xB 806-851 (rat)
[2] = molecular target: GST-Dyn1xB-PRR (full-length proline-rich region of Dynamin 1 splice variant xB, 746-851) (rat)
[3] = molecular target: GST-Dyn1xB 794-851 (rat)

Measured: binding

B1: Amphiphysin 1 (endogenous, rat brain synaptosomes) (protein, UniProt O08838 1-683)
chain: MADIKTGIFAKNVQKRLNRAQEKVLQKLGKADETKDEQFEEYVQNFKRQEAEGTRLQRELRGYLAAIKGMQEASMKLTESLHEVYEPDWYGREDVKMVGEKCDVLWEDFHQKLVDGSLLTLDTYLGQFPDIKNRIAKRSRKLVDYDSARHHLEALQSSKRKDESRISKAEEEFQKAQKVFEEFNVDLQEELPSLWSRRVGFYVNTFKNVSSLEAKFHKEIAVLCHKLYEVMTKLGDQHADKAFSIQGAPSDSGPLRIAKTPSPPEEASPLPSPTASPNHTLAPASPAPVRPRSPSQTRKGPPVPPLPKVTPTKELQQENIINFFEDNFVPEINVTTPSQNEVLEVKKEETLLDLDFDPFKPDVTPAGSAAATHSPMSQTLPWDLWTTSTDLVQPASGGSFNDFTQPQDTSLFTMQTDQNMAETEQALPTEPQAEEPPTTAAAPTAGLDLGLEMEEPKEEAAIPPGTDAGETVGTEGSTGEEAEAEKAALPAGEGESPEGAKIDVESTELASSESPQAAELEAGAPQEKVIPSVVIEPASNHEGEEHQETTTGTETREATEDVAPQGPAGEKQELATEPTPLDSQAATPAPAGAVDASLSAGDAAQELPPGFLYKVETLHDFEAANSDELTLQRGDVVLVVPSDSEADQDAGWLVGVKESDWLQYRDLATYKGLFPENFTRHLE
binds: all assays above

No constants are given. Whether binding was seen depends on the method and setting. In cells and extracts the contact can be indirect. Binding can be weak; no strength is given.
